Experimental data taken from publication PMC5376188.
These are yes or no findings as the source states them, for the method shown. Binding seen in cells or lysates may run through a third protein. Some binding calls cover weakened binding; strength is not graded here.

Sequences of proteins named here, by UniProt entry; tags and fusion partners are left off. A change or cut given only in a name is not applied to a line headed by its entry.
UniProt Q00944: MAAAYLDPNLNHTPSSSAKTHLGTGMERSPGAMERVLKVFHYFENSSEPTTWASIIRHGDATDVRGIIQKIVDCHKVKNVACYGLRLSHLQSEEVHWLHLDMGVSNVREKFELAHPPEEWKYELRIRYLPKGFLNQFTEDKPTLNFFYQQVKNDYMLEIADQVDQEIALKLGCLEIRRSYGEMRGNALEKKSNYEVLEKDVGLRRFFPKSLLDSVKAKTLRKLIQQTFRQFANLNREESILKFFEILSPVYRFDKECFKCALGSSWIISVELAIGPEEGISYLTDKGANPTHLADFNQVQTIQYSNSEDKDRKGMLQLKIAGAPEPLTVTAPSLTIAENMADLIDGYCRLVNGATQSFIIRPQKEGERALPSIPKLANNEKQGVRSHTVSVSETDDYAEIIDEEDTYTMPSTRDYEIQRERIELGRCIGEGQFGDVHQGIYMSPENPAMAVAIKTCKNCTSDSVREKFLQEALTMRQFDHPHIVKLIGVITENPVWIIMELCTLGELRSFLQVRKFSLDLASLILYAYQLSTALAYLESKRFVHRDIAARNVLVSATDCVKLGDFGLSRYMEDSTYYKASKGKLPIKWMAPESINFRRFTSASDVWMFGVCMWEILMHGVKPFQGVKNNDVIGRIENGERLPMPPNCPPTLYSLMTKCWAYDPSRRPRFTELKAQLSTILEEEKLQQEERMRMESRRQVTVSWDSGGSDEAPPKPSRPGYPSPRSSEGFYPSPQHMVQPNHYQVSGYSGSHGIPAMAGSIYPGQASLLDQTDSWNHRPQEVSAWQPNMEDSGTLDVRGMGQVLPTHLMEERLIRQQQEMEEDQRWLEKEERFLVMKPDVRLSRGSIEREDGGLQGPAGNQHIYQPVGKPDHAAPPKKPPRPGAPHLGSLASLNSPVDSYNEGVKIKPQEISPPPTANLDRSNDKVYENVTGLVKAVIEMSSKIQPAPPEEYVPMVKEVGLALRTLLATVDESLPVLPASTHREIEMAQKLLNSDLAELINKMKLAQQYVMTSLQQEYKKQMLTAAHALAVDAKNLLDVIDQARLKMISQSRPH

Assays:
[1] = target: FAK P875A/P881A (AA) mutant (UniProt Q00944); assay: co-IP; 1 mg lysate (RIPA buffer) of SCC FAK-WT, FAK P875A/P881A or FAK -/- cells, or of Ambra1 +/+ and -/- MEFs, with antibody or antibody-agarose at 4°C overnight; beads washed three times in lysis buffer and once in 0.6 M LiCl; western blot; in some experiments after IFITM3 siRNA
[2] = target: focal adhesion kinase (FAK), wild type, in SCC FAK-WT cells (UniProt Q00944); assay: as above

binding [1]: binds | binding [2]: binds
B1: p130Cas (protein, UniProt Q61140 1-874)
chain: MTVPNVLAKALYDNVAESPDELSFRKGDIMTVLERDTQGLDGWWLCSLHGRQGIVPGNRLKILVGMYDKKPVGPGPGPPATPPQPQPSLPQGVHAPVPPASQYSPMLPTAYQPQSDNVYLVPTPSKTQQGLYQAPGPNPQFQSPPAKQTSTFSKQTPHHSFPSPATDLYQVPPGPGSPAQDIYQVPPSAGIGHDIYQVPPSLDTRGWEGTKPPAKVVVPTRVGQGYVYEAAQTEQDEYDTPRHLLAPGPQDIYDVPPVRGLLPNQYGQEVYDTPPMAVKGPNGRDPLLDVYDVPPSVEKGLLSSSHHSVYDVPPSVSKDVPDGPLLREETYDVPPAFAKPKPFDPTRHPLILAAPPPDSPAAEDVYDVPPPAPDLYDVPPGLRRPGPGTLYDVPRERVLPPEVADGSVVDDGVYAVPPPAEREAPTDGKRLSASSTGSTRSSQSASSLEVVVPGREPLELEVAVESLARLQQGVSTTVAHLLDLVGSASGPGGWRGTSEPQEPPAQDLKAAVAAVHGAVHELLEFARGAVSNATHTSDRTLHAKLSRQLQKMEDVYQTLVVHGQVLDSGRGSPGFTPEDLDRLVACSRAVPEDAKQLASFLHGNASLLFRRTKAPGPGPEGSSSLHPNPTDKASSIQSRPLPSPPKFTSQDSPDGQYENSEGGWMEDYDYVHLQGKEEFEKTQKELLERGNIMRQGKGQLELQQLKQFERLEQEVSRPIDHDLANWTPAQPLVPGRTGGLGPSDRQLLLFYLEQCEANLTTLTDAVDAFFTAVATNQPPKIFVAHSKFVILSAHKLVFIGDTLSRQAKAADVRSQVTHYSNLLCDLLRGIVATTKAAALQYPSPSAAQDMVDRVKELGHSTQQFRRVLGQLAAA
